Where a name gives a salt, the structure may show the parent alone. Screen size: about 1,200 compounds; about 50 (4%) showed activity. Cut-off read from the data, not from the text of the source: all actives reach 1.3 or more but so do some inactives. Some of the results follow.
Test system: Lgr5 (MarsCy1-Lgr5-EGFP, U2OS)
Assay: cell-surface Lgr5 expression (SCi1 fluorescence, background-subtracted) relative to WT DMSO (fold of DMSO control); higher = more Lgr5 at the plasma membrane, active = hit call of the paper
Details: U2OS MarsCy1-Lgr5-EGFP stable; treatment time: overnight; 16 µM; library: Johns Hopkins Clinical Compound Library

| SMILES | cell-surface Lgr5 expression |
| --- | --- |
| CCCCCCCCCCCCCCCC(=O)Oc1ccc(/C(CC)=C(\CC)c2ccc(OC(=O)CCCCCCCCCCCCCCC)cc2)cc1 [Diethylstilbestrol dipalmitate] | inactive: 1.26 |
| C[C@H]1C[C@H]2[C@@H]3CCC4=CC(=O)C=C[C@]4(C)[C@@]3(F)[C@@H](O)C[C@]2(C)[C@@]1(O)C(=O)COP(=O)(O)O [Betamethasone sodium phosphate] | active: 1.35 |
| CCCCC(CC)COC(=O)CC(C(=O)OCC(CC)CCCC)S(=O)(=O)O (stereo not given) [Docusate sodium (Dioctyl Sulfosuccinate, sodium salt)] | inactive: 1.23 |
| CCCCCCCCCC(=O)N[C@@H](Cc1c[nH]c2ccccc12)C(=O)N[C@H](CC(N)=O)C(=O)N[C@@H](CC(=O)O)C(=O)N[C@@H]1C(=O)NCC(=O)N[C@@H](CCCN)C(=O)N[C@@H](CC(=O)O)C(=O)N[C@H](C)C(=O)N[C@@H](CC(=O)O)C(=O)NCC(=O)N[C@H](CO)C(=O)N[C@@H]([C@H](C)CC(=O)O)C(=O)N[C@@H](CC(=O)c2ccccc2N)C(=O)O[C@@H]1C [Daptomycin] | inactive: 0.72 |
| N=C(N)NCCC[C@H](NC(=O)[C@@H]1CCCN1C(=O)[C@@H]1CSSC[C@H](N)C(=O)N[C@@H](Cc2ccc(O)cc2)C(=O)N[C@@H](Cc2ccccc2)C(=O)N[C@@H](CCC(N)=O)C(=O)N[C@@H](CC(N)=O)C(=O)N1)C(=O)NCC(N)=O [Vasopressin] | inactive: 0.743 |
| CC(=O)OC[C@H]1O[C@@H]([S-])[C@H](OC(C)=O)[C@@H](OC(C)=O)[C@@H]1OC(C)=O.CCP(CC)CC.[Au+] [Auranofin] | inactive: 0.614 |
| NC(=O)NC(NC(N)=O)C(=O)O [Allantoic acid] | inactive: 0.921 |
| [O-2].[Zn+2] [Zinc oxide] | inactive: 0.734 |
| CCC1(c2ccccc2)C(=O)NCNC1=O [Primidone] | inactive: 0.503 |
| N#Cc1ccc2c(c1)N(CCCN1CCC(O)CC1)c1ccccc1S2 [Periciazine (propericiazine)] | inactive: 0.978 |
| Oc1c(Cl)cc(Cl)c2cccnc12 [Chloroxine (5,7-Dichloro-8-hydroxyquinoline)] | inactive: 0.97 |
| c1ccc(-c2ccc(C(c3ccccc3)n3ccnc3)cc2)cc1 (stereo not given) [Bifonazole] | inactive: 1.04 |
| CCN(CC)C(=S)S [Ditiocarb (Diethyldithiocarbamic acid sodium, thiocarb)] | inactive: 1.05 |
| C[C@H]1[C@H](C)CC[C@]2(C(=O)O)CC[C@]3(C)C(=CC[C@@H]4[C@@]5(C)CC[C@H](O)C(C)(C)[C@@H]5CC[C@]43C)[C@H]12 [Ursolic acid] | inactive: 0.799 |
| O=C(c1ccc(F)cc1)C1CCN(CCn2c(=O)[nH]c3ccccc3c2=O)CC1 [Ketanserin] | inactive: 1.15 |
| CCN(CC)C(=O)c1ccc(O)c(OC)c1 [Ethamivan (Vanillic acid diethylamide)] | inactive: 1 |
| Cc1cc2nc3c(=O)[nH]c(=O)nc-3n(C[C@H](O)[C@H](O)[C@H](O)CO)c2cc1C [Riboflavin] | inactive: 0.694 |
| CCCOc1ccc2[nH]c(NC(=O)OC)nc2c1 [Oxibendazole] | inactive: 1.15 |
| CN(C)CCOC(c1ccccc1)c1ccccc1.Cn1c(=O)c2[nH]c(Cl)nc2n(C)c1=O [Dimenhydrinate] | inactive: 0.955 |
| O=C1NCC2(CCN(CCc3ccccc3)CC2)O1 [Fenspiride] | inactive: 1.08 |
| Clc1ccc2c(c1)CCc1cccnc1C2=C1CCNCC1 [Desloratadine] | inactive: 0.874 |
| CC(=O)O[C@]1(C(C)=O)CC[C@H]2[C@@H]3C=C(Cl)C4=CC(=O)CC[C@]4(C)[C@H]3CC[C@@]21C [Chlormadinone acetate] | inactive: 1.09 |
| Cc1cc(O)c(C(=O)N[C@@H](C(=O)N[C@@H]2C(=O)N3C(C(=O)O)=C(CSc4nnnn4C)CS[C@H]23)c2ccc(O)cc2)cn1 [Cefpiramide] | inactive: 0.869 |
| CO[C@H]1/C=C/O[C@@]2(C)Oc3c(C)c(O)c4c(O)c(c5c(nc6cc(C)ccn65)c4c3C2=O)NC(=O)/C(C)=C\C=C\[C@H](C)[C@H](O)[C@@H](C)[C@@H](O)[C@@H](C)[C@H](OC(C)=O)[C@@H]1C [Rifaximin] | inactive: 1.08 |
| Clc1cccc(Cl)c1NC1=NCCN1 [Clonidine] | inactive: 0.984 |
| CCCCCCCCCCCCCCCC(=O)OC[C@H](O)[C@H]1OC(=O)C(O)=C1O [Ascorbic acid 6-palmitate] | inactive: 1.15 |
| NCCCCCC(=O)O [6-Aminocaproic acid] | inactive: 1.21 |
| CN(C)C(=N)NC(=N)N [Metformin (1,1-Dimethylbiguanide hydrochloride)] | inactive: 1.07 |

| SMILES | cell-surface Lgr5 expression |
| --- | --- |
| CC=CC(=O)N(CC)c1ccccc1C [Crotamiton (N-ethyl-o-crotonotoluidine)] | inactive: 1.22 |
| CCCCCO [1-Pentanol] | inactive: 1.05 |
| O=C1Nc2ccc(Cl)cc2[C@@](C#CC2CC2)(C(F)(F)F)O1 [Efavirenz] | inactive: 0.949 |
| Cc1ncc(CO)c(CN)c1O [Pyridoxamine, Dihydrochloride] | inactive: 1.02 |
| Cc1ncc(CO)c(CN)c1O [Pyridoxamine dihydrochloride] | inactive: 0.999 |
| O=C(O)c1ccccc1Nc1cccc(C(F)(F)F)c1 [Flufenamic acid] | inactive: 1.19 |
| Clc1ccc(C(c2ccccc2Cl)C(Cl)Cl)cc1 (stereo not given) | inactive: 1.23 |
| O=C1O[C@H]([C@@H](O)CO)C(O)=C1O [Ascorbic acid] | inactive: 0.81 |
| CSCC[C@H](NC(=O)[C@H](CO)NC(=O)[C@H](Cc1ccc(O)cc1)NC(=O)[C@@H](N)CO)C(=O)N[C@@H](CCC(=O)O)C(=O)N[C@@H](Cc1cnc[nH]1)C(=O)N[C@@H](Cc1ccccc1)C(=O)N[C@@H](CCCNC(=N)N)C(=O)N[C@@H](Cc1c[nH]c2ccccc12)C(=O)NCC(=O)N[C@@H](CCCCN)C(=O)N1CCC[C@H]1C(=O)N[C@H](C(=O)NCC(=O)N[C@@H](CCCCN)C(=O)N[C@@H](CCCCN)C(=O)N[C@@H](CCCNC(=N)N)C(=O)N[C@@H](CCCNC(=N)N)C(=O)N1CCC[C@H]1C(=O)N[C@H](C(=O)N[C@@H](CCCCN)C(=O)N[C@H](C(=O)N[C@@H](Cc1ccc(O)cc1)C(=O)N1CCC[C@H]1C(=O)N[C@@H](CC(N)=O)C(=O)NCC(=O)N[C@@H](C)C(=O)N[C@@H](CCC(=O)O)C(=O)N[C@@H](CC(=O)O)C(=O)N[C@@H](CCC(=O)O)C(=O)N[C@@H](CO)C(=O)N[C@@H](C)C(=O)N[C@@H](CCC(=O)O)C(=O)N[C@@H](C)C(=O)N[C@@H](Cc1ccccc1)C(=O)N1CCC[C@H]1C(=O)N[C@@H](CC(C)C)C(=O)N[C@@H](CCC(=O)O)C(=O)N[C@@H](Cc1ccccc1)C(=O)O)C(C)C)C(C)C)C(C)C [Corticotropin A (Adrenocorticotropic hormone)] | inactive: 0.747 |
| Nc1ccc(/N=N/c2ccccc2)c(N)n1 [Phenazopyridine] | inactive: 1.09 |
| CCc1cc(Cl)c(OC)c(C(=O)NC[C@@H]2CCCN2CC)c1O [Eticlopride hydrochloride (S)] | active: 1.52 |
| CN(C)CCOC(=O)C(c1ccccc1)C1(O)CCCC1 (stereo not given) [Cyclopentolate hydrochloride] | inactive: 1.09 |
| Nc1nc(/C(=C/CC(=O)O)C(=O)N[C@@H]2C(=O)N3C(C(=O)O)=CCS[C@H]23)cs1 [Ceftibuten] | inactive: 0.828 |
| C[N+](C)(CCOc1ccccc1)Cc1ccccc1.O=C([O-])c1cc2ccccc2cc1O [Bephenium hydroxy-naphthoate] | inactive: 1.05 |
| Cc1nc2c([nH]1)c(=O)n(C)c(=O)n2Cc1ccco1 [Furafylline] | inactive: 1.07 |
| CC(NCCc1ccc(O)cc1)C(O)c1ccc(O)cc1 (stereo not given) [Ritodrine] | inactive: 1.26 |
| O=S(=O)([O-])[O-].[Cu+2] [Copper (II) sulfate] | inactive: 1.27 |
| NC1CCN(c2c(F)cc3c(=O)c(C(=O)O)cn(C4CC4)c3c2Cl)C1 (stereo not given) [Clinafloxacin HCl] | inactive: 0.853 |
| CCC1(C)CC(=O)NC1=O (stereo not given) [Ethosuximide] | inactive: 0.645 |
| O=[N+]([O-])c1ccc(O)c2ncccc12 [Nitroxoline (8-hydroxy 5-nitroquinoline)] | inactive: 0.36 |
| CC(O)(CC(=O)O)CC(=O)O [Meglutol (3-Hydroxy-3-methylglutaric acid)] | inactive: 1.25 |
| O=P([O-])([O-])[O-].O=P([O-])([O-])[O-].O=P([O-])([O-])[O-].[Ca+2].[Ca+2].[Ca+2].[Ca+2].[Ca+2].[OH-] [Durapatite (Hydroxyapatite)] | inactive: 0.922 |
| CN1CCN2c3ccccc3Cc3ccccc3C2C1 (stereo not given) [Mianserin] | inactive: 1.19 |
| N[C@@H](Cc1ccc(O)c(O)c1)C(=O)O [Levodopa (L-beta-3,4-Dihydroxyphenylananine)] | inactive: 0.449 |
| CN(C)CCc1c[nH]c2ccc(CS(=O)(=O)N3CCCC3)cc12 [Almotriptan] | inactive: 0.669 |
| CCC(=O)[O-].CCC(=O)[O-].[Ca+2] [Calcium propionate] | inactive: 1 |
| O=C(NC(Cc1cc(=O)[nH]c2ccccc12)C(=O)O)c1ccc(Cl)cc1 (stereo not given) [Rebamipide] | inactive: 1.11 |

Taken from above.
Value of CCc1cc(Cl)c(OC)c(C(=O)NC[C@@H]2CCCN2CC)c1O [Eticlopride hydrochloride (S)] under cell-surface Lgr5 expression: active: 1.52
Value of NC1CCN(c2c(F)cc3c(=O)c(C(=O)O)cn(C4CC4)c3c2Cl)C1 (stereo not given) [Clinafloxacin HCl] under cell-surface Lgr5 expression: inactive: 0.853
